Data as given in PubChem BioAssay AID743121 (NCATS, 2013)
The deposit covers about 26,000 reagents; this is a part drawn at random. 167 of them (0.63%) count as active. 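Calls are per gene from RSA p-values that are not deposited; an individual active-marked siRNA can sensitise only weakly.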 Unmarked entries are inactive. The numbers tell different reagents against one gene apart.

Purpose: 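Genes whose silencing strengthens cell killing by camptothecin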 (primary screen)
System: MDA-MB-231 cells, a human breast cancer line
Reagent: single siRNA against human genes, 20 nM siRNA (0.8 pmol per well)
Timing: 120 h (drug added 48 h after transfection, read 72 h later)
Conditions: camptothecin 20 nM (about EC30) for 72 h; vehicle 0.1% DMSO in parallel plates
Measurement: 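Cell viability by ATP luminescence (CellTiter-Glo) as % of non-targeting siRNA wells, and the log2 ratio of viability without drug over viability with camptothecin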
Reading the numbers: log2 vehicle/camptothecin viability: higher = stronger sensitisation to camptothecin; viability with camptothecin and viability without drug: higher = more viable cells
Hit rule: 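Each gene scored by redundant siRNA activity (RSA) over its individual siRNA ratios; a gene is called active at p < 0.001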

gene symbol	reagent no.	log2 vehicle/camptothecin viability	viability with camptothecin (% of control)	viability without drug (% of control)
SURF1 (SURF1 cytochrome c oxidase assembly factor)	1	0.0569	64	66.5
SURF1 (SURF1 cytochrome c oxidase assembly factor)	2	-0.354	81.2	63.6
SURF1 (SURF1 cytochrome c oxidase assembly factor)	3	0.0671	78.8	82.6
SURF1 (SURF1 cytochrome c oxidase assembly factor)	4	-0.127	57.6	52.7
DYRK3 (dual specificity tyrosine phosphorylation regulated kinase 3)	1	-0.237	105	89.2
DYRK3 (dual specificity tyrosine phosphorylation regulated kinase 3)	2	0.309	25.8	31.9
DYRK3 (dual specificity tyrosine phosphorylation regulated kinase 3)	3	-0.0621	98.2	94
DYRK3 (dual specificity tyrosine phosphorylation regulated kinase 3)	4	-0.142	116	106
RYR3 (ryanodine receptor 3)	1	0.0263	32.3	32.9
RYR3 (ryanodine receptor 3)	2	-0.117	103	94.8
RYR3 (ryanodine receptor 3)	3	0.000954	79.1	79.1
RYR3 (ryanodine receptor 3)	4	0.0896	49.5	52.7
PTPRS (protein tyrosine phosphatase receptor type S)	1	0.398	28.4	37.4
PTPRS (protein tyrosine phosphatase receptor type S)	2	-0.168	110	97.6
PTPRS (protein tyrosine phosphatase receptor type S)	3	-0.288	72.1	59
PTPRS (protein tyrosine phosphatase receptor type S)	4	-0.282	76.3	62.8
AICDA (activation induced cytidine deaminase)	1	-0.446	88.4	64.9
AICDA (activation induced cytidine deaminase)	2	-0.242	125	106
AICDA (activation induced cytidine deaminase)	3	-0.176	83.4	73.8
AICDA (activation induced cytidine deaminase)	4	0.328	17.7	22.2
OR2W3 (olfactory receptor family 2 subfamily W member 3)	1	-0.172	76.9	68.2
OR2W3 (olfactory receptor family 2 subfamily W member 3)	2	-0.116	65.9	60.9
OR2W3 (olfactory receptor family 2 subfamily W member 3)	3	0.279	32	38.8
OR2W3 (olfactory receptor family 2 subfamily W member 3)	4	-0.39	86.6	66.1
ULBP3 (UL16 binding protein 3)	1	-0.0425	107	104
ULBP3 (UL16 binding protein 3)	2	-0.736	85.8	51.5
ULBP3 (UL16 binding protein 3)	3	0.252	74.5	88.7
ULBP3 (UL16 binding protein 3)	4	0.248	50.8	60.3
EPHA7 (EPH receptor A7)	1	-0.312	76	61.2
EPHA7 (EPH receptor A7)	2	-0.0613	70.2	67.3
EPHA7 (EPH receptor A7)	3	-0.276	20.3	16.8
IL9 (interleukin 9)	1	-0.288	101	82.4
IL9 (interleukin 9)	2	-0.105	56.5	52.6
IL9 (interleukin 9)	3	-0.19	95.1	83.4
IAPP (islet amyloid polypeptide)	1	-0.192	85.7	75
IAPP (islet amyloid polypeptide)	2	0.11	79.1	85.4
IAPP (islet amyloid polypeptide)	3	-0.647	59.5	38
SUV39H1 (SUV39H1 histone lysine methyltransferase)	1	-0.154	97.6	87.8
SUV39H1 (SUV39H1 histone lysine methyltransferase)	2	-0.115	112	103
SUV39H1 (SUV39H1 histone lysine methyltransferase)	3	-0.0715	46.8	44.5
SUV39H1 (SUV39H1 histone lysine methyltransferase)	4	0.28	69.7	84.6
PPM1B (protein phosphatase, Mg2+/Mn2+ dependent 1B)	1	-0.288	122	100
PPM1B (protein phosphatase, Mg2+/Mn2+ dependent 1B)	2	-0.143	101	91.4
PPM1B (protein phosphatase, Mg2+/Mn2+ dependent 1B)	3	-0.151	85.3	76.9
PPM1B (protein phosphatase, Mg2+/Mn2+ dependent 1B)	4	-0.0991	110	102
PPM1B (protein phosphatase, Mg2+/Mn2+ dependent 1B)	5	-0.362	86.9	67.6
PPM1B (protein phosphatase, Mg2+/Mn2+ dependent 1B)	6	0.129	63.8	69.8
PPM1B (protein phosphatase, Mg2+/Mn2+ dependent 1B)	7	-0.183	90	79.3
PPM1B (protein phosphatase, Mg2+/Mn2+ dependent 1B)	8	-0.345	108	85.3
KSR2 (kinase suppressor of ras 2)	1	-0.207	119	103
KSR2 (kinase suppressor of ras 2)	2	0.164	74	82.9
KSR2 (kinase suppressor of ras 2)	3	-0.479	107	76.4
KSR2 (kinase suppressor of ras 2)	4	-0.0918	55.7	52.3
CELA1 (chymotrypsin like elastase 1)	1	-0.31	91.6	73.9
CELA1 (chymotrypsin like elastase 1)	2	-0.0366	97.1	94.7
CELA1 (chymotrypsin like elastase 1)	3	-0.322	47.3	37.9
CELA1 (chymotrypsin like elastase 1)	4	-0.168	75.8	67.5
CHRND (cholinergic receptor nicotinic delta subunit)	1	-0.481	72.5	51.9
CHRND (cholinergic receptor nicotinic delta subunit)	2	0.038	22.4	23
CHRND (cholinergic receptor nicotinic delta subunit)	3	-0.378	63.2	48.6
CHRND (cholinergic receptor nicotinic delta subunit)	4	-0.271	54.1	44.8
CYB5R3 (cytochrome b5 reductase 3)	1	-0.337	70.2	55.6
CYB5R3 (cytochrome b5 reductase 3)	2	0.473	53.6	74.3
CYB5R3 (cytochrome b5 reductase 3)	3	-0.255	109	91.5
CYB5R3 (cytochrome b5 reductase 3)	4	1.29	20.6	50.4
SCN1B (sodium voltage-gated channel beta subunit 1)	1	0.101	86.8	93.1
SCN1B (sodium voltage-gated channel beta subunit 1)	2	0.59	61.5	92.6
SCN1B (sodium voltage-gated channel beta subunit 1)	3	-0.257	66.7	55.8
ACOX1 (acyl-CoA oxidase 1)	1	0.308	18.3	22.7
ACOX1 (acyl-CoA oxidase 1)	2	-0.401	55.7	42.1
ACOX1 (acyl-CoA oxidase 1)	3	0.0861	76.7	81.4
ACOX1 (acyl-CoA oxidase 1)	4	-0.305	117	94.7
ROM1 (retinal outer segment membrane protein 1)	1	-0.219	107	92
ROM1 (retinal outer segment membrane protein 1)	2	0.056	57.6	59.8
ROM1 (retinal outer segment membrane protein 1)	3	0.338	45	56.9
ROM1 (retinal outer segment membrane protein 1)	4	0.0443	65.3	67.3
NPR1 (natriuretic peptide receptor 1)	1	0.333	82.5	104
NPR1 (natriuretic peptide receptor 1)	2	-0.217	99.8	85.9
NPR1 (natriuretic peptide receptor 1)	3	-0.236	115	97.5
NPR1 (natriuretic peptide receptor 1)	4	-0.0998	23.4	21.9
MESP1 (mesoderm posterior bHLH transcription factor 1)	1	-0.281	70.4	57.9
MESP1 (mesoderm posterior bHLH transcription factor 1)	2	0.0576	55.7	57.9
MESP1 (mesoderm posterior bHLH transcription factor 1)	3	0.0229	119	121
BSPRY (B-box and SPRY domain containing)	1	-0.0594	94	90.2
BSPRY (B-box and SPRY domain containing)	2	0.0618	36.7	38.3
BSPRY (B-box and SPRY domain containing)	3	-0.0814	101	95.9
BSPRY (B-box and SPRY domain containing)	4	-0.0736	52.6	50

In a second layout: results already given.
gene symbol,reagent no.,log2 vehicle/camptothecin viability,viability with camptothecin (% of control),viability without drug (% of control)
SCN1B (sodium voltage-gated channel beta subunit 1),3,-0.257,66.7,55.8
ACOX1 (acyl-CoA oxidase 1),1,0.308,18.3,22.7
ACOX1 (acyl-CoA oxidase 1),2,-0.401,55.7,42.1
ACOX1 (acyl-CoA oxidase 1),3,0.0861,76.7,81.4
ACOX1 (acyl-CoA oxidase 1),4,-0.305,117,94.7
ROM1 (retinal outer segment membrane protein 1),1,-0.219,107,92
ROM1 (retinal outer segment membrane protein 1),2,0.056,57.6,59.8
ROM1 (retinal outer segment membrane protein 1),3,0.338,45,56.9
ROM1 (retinal outer segment membrane protein 1),4,0.0443,65.3,67.3
NPR1 (natriuretic peptide receptor 1),1,0.333,82.5,104
NPR1 (natriuretic peptide receptor 1),2,-0.217,99.8,85.9
NPR1 (natriuretic peptide receptor 1),3,-0.236,115,97.5
